No constants are given. Whether binding was seen depends on the method and setting. A result given as binding can be weak or reduced; the word gives no strength.
Key:
Experiment in all cases: two-hybrid
[1] = target: T1, EzrA^Spn (S. pneumoniae) (UniProt Q8DQE5)
T1 sequence: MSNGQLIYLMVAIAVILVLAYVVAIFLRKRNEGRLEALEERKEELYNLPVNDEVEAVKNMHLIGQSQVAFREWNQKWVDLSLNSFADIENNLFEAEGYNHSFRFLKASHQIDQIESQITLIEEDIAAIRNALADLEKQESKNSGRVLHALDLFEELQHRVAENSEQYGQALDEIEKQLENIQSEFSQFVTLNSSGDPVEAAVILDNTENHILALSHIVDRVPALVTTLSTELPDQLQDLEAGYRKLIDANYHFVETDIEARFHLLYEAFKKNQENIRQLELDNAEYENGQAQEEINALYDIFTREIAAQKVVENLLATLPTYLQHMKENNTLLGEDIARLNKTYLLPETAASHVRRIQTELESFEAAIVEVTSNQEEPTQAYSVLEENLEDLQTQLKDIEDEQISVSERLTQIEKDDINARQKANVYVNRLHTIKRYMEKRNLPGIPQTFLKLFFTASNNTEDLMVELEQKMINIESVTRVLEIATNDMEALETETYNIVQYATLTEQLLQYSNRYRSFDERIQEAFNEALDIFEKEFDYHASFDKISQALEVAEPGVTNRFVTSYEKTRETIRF

Protein sequences, listed by entry. Tags and fused reporters are not part of them.
UniProt Q2FYI5, whole entry: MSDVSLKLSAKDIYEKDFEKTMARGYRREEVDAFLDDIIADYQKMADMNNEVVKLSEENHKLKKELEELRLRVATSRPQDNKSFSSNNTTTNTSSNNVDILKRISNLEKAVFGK

[2] = target: CozEb (S. aureus SH1000) (UniProt Q2G2N2)
[3] = target: GpsB (S. aureus) (UniProt Q2FYI5)
[4] = target: T2, EzrA (S. aureus) (UniProt Q2FXK8)
T2 sequence: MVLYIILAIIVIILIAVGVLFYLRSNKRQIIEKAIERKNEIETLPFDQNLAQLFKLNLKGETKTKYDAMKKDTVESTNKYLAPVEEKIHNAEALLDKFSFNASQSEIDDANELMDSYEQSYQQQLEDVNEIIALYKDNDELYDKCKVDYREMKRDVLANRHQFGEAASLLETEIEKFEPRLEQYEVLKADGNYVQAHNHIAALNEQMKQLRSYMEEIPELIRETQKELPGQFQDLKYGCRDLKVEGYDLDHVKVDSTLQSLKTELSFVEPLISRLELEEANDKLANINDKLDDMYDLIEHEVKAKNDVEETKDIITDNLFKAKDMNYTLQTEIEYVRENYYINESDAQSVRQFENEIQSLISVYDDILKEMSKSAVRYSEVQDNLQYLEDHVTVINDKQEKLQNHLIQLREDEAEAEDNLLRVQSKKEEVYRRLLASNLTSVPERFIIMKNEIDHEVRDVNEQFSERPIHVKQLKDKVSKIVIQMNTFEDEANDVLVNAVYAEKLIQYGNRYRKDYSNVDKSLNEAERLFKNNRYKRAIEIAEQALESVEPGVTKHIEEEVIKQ

| Substance | binding [1] | binding [2] | binding [3] | binding [4] |
| --- | --- | --- | --- | --- |
| CozEa (from UniProt Q2FZQ2) | binds | binds | binds | binds |
| CozEb (from UniProt Q2G2N2) | binds |  | no binding | binds |

Reference: publication doi:10.1101/256560
